Some of these results come from one statement about several compounds together. For some of these results: At least one structure is not confirmed: it was looked up by name or label, or the drawing left a doubt.
What was measured:
Type in all cases: in vivo
[1] = tested on: Western Flower thrips (Frankliniella occidentalis); test: Insecticidal test on western flower thrips, kidney bean leaf pieces; settings: 500 ppm dispersion applied to hatched larvae on kidney bean leaf pieces, 4 days after treatment
[2] = tested on: Small Brown Planthopper (Laodelphax striatella); test: Insecticidal test on small brown planthopper, rice seedling dip; settings: 500 ppm dispersion, rice seedlings dipped 30 seconds, 3rd-instar larvae, 8 days after inoculation
[3] = tested on: Diamondback Moth (Plutella xylostella); test: Insecticidal test on diamondback moth, egg/seedling dip; settings: 500 ppm dispersion, Chinese cabbage seedlings with eggs dipped about 30 seconds, hatched larvae counted 6 days after treatment, 25° C.

Row | Compound | insecticidal efficacy (mortality rate, criteria) [1] | insecticidal efficacy (corrected mortality rate, criteria) [2] | insecticidal efficacy (mortality rate, criteria) [3]
1 | Cc1cc(NC(=O)C2=C(O)CC(c3ccc(C(F)(F)F)nc3)NC2=O)on1 (racemic) [1-221] | A (the mortality rate is 100%.) | A (the mortality rate is 100%.) | –
2 | N#Cc1ccc(NC(=O)C2=C(O)CC(c3ccc(C(F)(F)F)cc3)NC2=O)cc1 (stereo not shown) [1-21] | A (the mortality rate is 100%.) | – | A (the mortality rate is 100%.)
3 | CS(=O)(=O)c1ccc(NC(=O)C2=C(O)CC(c3ccc(C(F)(F)F)cc3)NC2=O)cc1 (stereo not shown) [1-24] | A (the mortality rate is 100%.) | – | –
4 | N#Cc1ccc(NC(=O)C2=C(O)CC(c3ccc(C(F)(F)F)cc3)NC2=O)c(Cl)c1 (stereo not shown) [1-32] | A (the mortality rate is 100%.) | – | A (the mortality rate is 100%.)
5 | N#Cc1ccc(NC(=O)C2=C(O)CC(c3ccc(C(F)(F)F)cc3)NC2=O)cc1F (stereo not shown) [1-34] | A (the mortality rate is 100%.) | – | A (the mortality rate is 100%.)
6 | O=C(Nc1ccc2c(c1)OC(F)(F)O2)C1=C(O)CC(c2ccc(C(F)(F)F)cc2)NC1=O (stereo not shown) [1-37] | A (the mortality rate is 100%.) | – | A (the mortality rate is 100%.)
7 | O=C(Nc1ccc(F)cc1)C1=C(O)CC(c2ccc(C(F)(F)F)cc2F)NC1=O (stereo not shown) [1-68] | A (the mortality rate is 100%.) | – | A (the mortality rate is 100%.)
8 | O=C(NC1CCCC1)C1=C(O)CC(c2ccc(C(F)(F)F)nc2)NC1=O (stereo not shown) [1-100] | A (the mortality rate is 100%.) | – | –
9 | C=CCNC(=O)C1=C(O)CC(c2ccc(C(F)(F)F)nc2)NC1=O (stereo not shown) [1-103] | – | A (the mortality rate is 100%.) | A (the mortality rate is 100%.)
10 | COCCNC(=O)C1=C(O)CC(c2ccc(C(F)(F)F)nc2)NC1=O (stereo not shown) [1-109] | – | A (the mortality rate is 100%.) | A (the mortality rate is 100%.)
11 | N#CCCNC(=O)C1=C(O)CC(c2ccc(C(F)(F)F)nc2)NC1=O (stereo not shown) [1-113] | A (the mortality rate is 100%.) | A (the mortality rate is 100%.) | –
12 | Cc1ccc(NC(=O)C2=C(O)CC(c3ccc(C(F)(F)F)nc3)NC2=O)cc1 (stereo not shown) [1-130] | – | A (the mortality rate is 100%.) | A (the mortality rate is 100%.)
13 | O=C(Nc1ccc(OC(F)(F)F)cc1)C1=C(O)CC(c2ccc(C(F)(F)F)nc2)NC1=O (stereo not shown) [1-131] | A (the mortality rate is 100%.) | – | A (the mortality rate is 100%.)
14 | COC(=O)c1ccc(NC(=O)C2=C(O)CC(c3ccc(C(F)(F)F)nc3)NC2=O)cc1 (stereo not shown) [1-134] | A (the mortality rate is 100%.) | A (the mortality rate is 100%.) | –
15 | O=C(Nc1ccc(C(=O)NCC(F)(F)F)cc1)C1=C(O)CC(c2ccc(C(F)(F)F)nc2)NC1=O (stereo not shown) [1-135] | A (the mortality rate is 100%.) | A (the mortality rate is 100%.) | –
16 | O=C(Nc1cc[nH]n1)C1=C(O)CC(c2ccc(C(F)(F)F)nc2)NC1=O (stereo not shown) [1-139] | – | A (the mortality rate is 100%.) | A (the mortality rate is 100%.)
17 | O=C(Nc1cccc[n+]1[O-])C1=C(O)CC(c2ccc(C(F)(F)F)nc2)NC1=O (stereo not shown) [1-149] | – | A (the mortality rate is 100%.) | A (the mortality rate is 100%.)
18 | O=C(Nc1cccnn1)C1=C(O)CC(c2ccc(C(F)(F)F)nc2)NC1=O (stereo not shown) [1-168] | A (the mortality rate is 100%.) | A (the mortality rate is 100%.) | –
19 | O=C(Nc1ccncn1)C1=C(O)CC(c2ccc(C(F)(F)F)nc2)NC1=O (stereo not shown) [1-169] | A (the mortality rate is 100%.) | – | A (the mortality rate is 100%.)
20 | O=C(Nc1ncc(Cl)cn1)C1=C(O)CC(c2ccc(C(F)(F)F)nc2)NC1=O (stereo not shown) [1-178] | – | A (the mortality rate is 100%.) | A (the mortality rate is 100%.)
21 | O=C(Nc1ccccn1)C1=C(O)CC(c2ccc(Br)nc2)NC1=O (stereo not shown) [1-214] | – | A (the mortality rate is 100%.) | A (the mortality rate is 100%.)
22 | O=C(Nc1ccc(F)cc1)C1=C(O)CC(c2cccc(Br)n2)NC1=O (stereo not shown) [1-242] | – | A (the mortality rate is 100%.) | A (the mortality rate is 100%.)
23 | CSc1ccc(NC(=O)C2=C(O)CC(c3ccc(C(F)(F)F)nc3)NC2=O)nc1 (stereo not shown) [1-250] | – | A (the mortality rate is 100%.) | A (the mortality rate is 100%.)
24 | CSc1ccc(C2CC(O)=C(C(=O)Nc3ccccn3)C(=O)N2)cn1 (stereo not shown) [1-255] | – | A (the mortality rate is 100%.) | A (the mortality rate is 100%.)
25 | CC(C)CN1C(=O)C(C(=O)Nc2ccc(F)cc2)=C(O)CC1c1ccc(C(F)(F)F)cc1 (stereo not shown) [2-4] | A (the mortality rate is 100%.) | – | A (the mortality rate is 100%.)
26 | O=C(Nc1ccc(F)cc1)C1=C(O)CC(c2ccc(C(F)(F)F)nc2)N(C2CC2)C1=O (stereo not shown) [2-10] | – | A (the mortality rate is 100%.) | A (the mortality rate is 100%.)
27 | O=C(Nc1ccc(F)cc1)C1=C(O)CC(c2ccc(C(F)(F)F)nc2)N(CC(F)F)C1=O (stereo not shown) [2-12] | – | A (the mortality rate is 100%.) | A (the mortality rate is 100%.)
28 | COC(=O)N1C(=O)C(C(=O)Nc2ccc(F)cc2)=C(O)CC1c1ccc(C(F)(F)F)cc1 (stereo not shown) [2-23] | – | A (the mortality rate is 100%.) | A (the mortality rate is 100%.)
29 | O=C1NC(c2ccc(SC(F)(F)F)cc2)CC(O)=C1C(=S)Nc1cccc(F)c1 (stereo not shown) [3-4] | A (the mortality rate is 100%.) | A (the mortality rate is 100%.) | –
30 | O=C1NC(c2ccc(Br)cn2)CC(O)=C1C(=S)Nc1cccc(F)c1 (stereo not shown) [3-5] | – | A (the mortality rate is 100%.) | A (the mortality rate is 100%.)
